system: mammalian cytotoxicity; experiment: Toxicity assay, colorimetric MTT assay (mammalian cytotoxicity); format: cell-based; settings: ratio of mammalian cytotoxicity and anti-malarial activity
Procedure: Toxicity was determined by using the colorimetric 3-(4,5-dimethylthiazol-2-yl)-2,5-diphenyltetrazoliumbromide (MTT) assay. The toxicity assays were performed at the Swiss Tropical Institute, Basel, Switzerland.

Row | SMILES | Therapeutic Index
1 | CCN(CC)CCCC(C)Nc1ccnc2cc(Cl)ccc12 (centres unmarked) [chloroquine, reference compound] | ~2
2 | Cc1ccc(Cn2cc(CCC(=O)NCCCN3CC(C)CC(C)C3)c3ccccc32)cc1 (centres unmarked) [GR-M007] | 23
3 | Cc1cccc[n+]1CCCCCCCCCC[n+]1ccccc1C [GR-M009] | > 6923
4 | CC1=C(CCC(C)N(C)Cc2ccc(OCCCN3CCCC3)cc2)C(C)(C)CCC1 (centres unmarked) [GR-M010] | 28
5 | CC(C)(C)CC(C)(C)Cc1ccc(OCCOCC[N+](C)(C)Cc2ccccc2)cc1 [GR-M011] | 38

From paper PMC3206494, “Discovery of potent, novel, non-toxic anti-malarial compounds via quantum modelling, virtual screening and in vitro experimental validation” (Malaria Journal, 2011)
